Experimental data published in publication PMC7819943, “Rice protein-binding microarrays: a tool to detect cis-acting elements near promoter regions in rice”.
This is one part of the list.

Sequences of proteins named here, by UniProt entry; tags and fusion partners are left off.
UniProt Q0JBA9, entry or part of it: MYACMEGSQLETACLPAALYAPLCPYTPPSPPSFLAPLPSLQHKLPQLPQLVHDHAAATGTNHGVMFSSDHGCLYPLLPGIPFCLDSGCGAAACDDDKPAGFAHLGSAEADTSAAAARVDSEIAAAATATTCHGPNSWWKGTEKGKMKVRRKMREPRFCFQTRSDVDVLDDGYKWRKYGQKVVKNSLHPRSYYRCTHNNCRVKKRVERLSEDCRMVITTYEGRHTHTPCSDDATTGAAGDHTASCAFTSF

The sequences below were run against OsWRKY34 (Oryza sativa, UniProt Q0JBA9 1-250) (assay: protein-binding microarray (RPBM); PBS, 2% BSA, 51.3 ng/ul salmon testes DNA, 50 uM zinc acetate, 200 nM TF, 25 C, 1 h; high values mean tight binding). Conditions: protein: recombinant; tags: N-terminal polyhistidine and DsRed monomer fusion (pET32a); label: CyDye5-dUTP incorporated in the synthesized complementary strand; 3' TTTTT single-stranded linker to array surface; dsDNA, one strand shown.
Method in brief: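 The binding signal for each feature is its fluorescence intensity in arbitrary units. An Axon 4000B scanner was used to read a custom Agilent array that had been made double-stranded with Cy5-dUTP primer extension, blocked with 2% BSA, incubated at 25 °C for 1 h with 200 nM protein in PBS, 2% BSA, salmon testes DNA and 50 µM zinc acetate, and washed. The protein was an N-terminal polyhistidine–DsRed transcription factor fusion from E. coli BL21-CodonPlus, purified on Ni–NTA.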

Point of comparison: “CCGTTGACTTTTTAGTACGTGTTTGACCATTCGTCTTATTCGGAGTCACCTAGTGCAG”, binding signal 32300 ± 947 fluorescence intensity (a.u.). Against it:
- TTTGACACCGTTGATTTTTTAATATGTGTTTGACCATTCGCGGAGTCACCTAGTGCAG — lower, 9260 fluorescence intensity (a.u.)
- TGTAGTGTCAAACATGCCTCGTCCACATATATGCACAAACCGGAGTCACCTAGTGCAG — lower, 9120 fluorescence intensity (a.u.)
- CATCAATACATCACACTACTCATGGAGGCATCACTATATTCGGAGTCACCTAGTGCAG — lower, 9240 fluorescence intensity (a.u.)
- ATAAACCCACATCCTTAGCGCGGCCAGTTCGTCGTCTGAACGGAGTCACCTAGTGCAG — lower, 10500 fluorescence intensity (a.u.)
- CCTTAGCAGCCTCTTTATGGCAGTTTGACTGTTGACCCGTCGGAGTCACCTAGTGCAG — lower, 10200 fluorescence intensity (a.u.)
- CTAGATGGCCTTATTATCTCTACATCACACGTTATATCTACGGAGTCACCTAGTGCAG — lower, 8060 fluorescence intensity (a.u.)
- GGGGTATGTAAGGGATTGAGCAAAATTCAGGGTATAGAAGCGGAGTCACCTAGTGCAG — lower, 10700 fluorescence intensity (a.u.)
- TTCAATTTCTCCCGTGCATGTCCTGTTTCAATTTCGTCCACGGAGTCACCTAGTGCAG — lower, 12500 fluorescence intensity (a.u.)
- TATGTATTCTTTTTTAAAAATCTTAGGTATTTTCATTTGACGGAGTCACCTAGTGCAG — lower, 8960 fluorescence intensity (a.u.)
- AACCGTGTCTGTCTTATCATAATCACGTCTCAACTTTCTGCGGAGTCACCTAGTGCAG — lower, 8980 fluorescence intensity (a.u.)
- CCAGCGGTTCCCTTTCATCTATCCTCGTTTCTAAAATCACCGGAGTCACCTAGTGCAG — lower, 8920 fluorescence intensity (a.u.)
- GCAACCACCACCGTCTCGCCTGCATCGCTCGCCGCCGCATCGGAGTCACCTAGTGCAG — lower, 14600 fluorescence intensity (a.u.)
- TACAGCATTAGTACGTCTTAATTGCAACTGTCGGTCAACTCGGAGTCACCTAGTGCAG — lower, 8430 fluorescence intensity (a.u.)
- GCTTATTGTTTCTTTGTTTAAATCAGATAACATGTCTTCTCGGAGTCACCTAGTGCAG — lower, 10500 fluorescence intensity (a.u.)
- TTTCCCTTGGTTTGATGCGGCGGCGGTGGTGAGGGTGGGACGGAGTCACCTAGTGCAG — lower, 8510 fluorescence intensity (a.u.)
- TCGGCGTCCCGTCTGTTCGCTACGCACGCACTCACTCACTCGGAGTCACCTAGTGCAG — lower, 8420 fluorescence intensity (a.u.)
- CAGGTCTTAGTTTTATGCTTGATAATTGAGGGATTATTTTCGGAGTCACCTAGTGCAG — lower, 8650 fluorescence intensity (a.u.)
- GCCTAGGGTTAGGGTTCGAGACTGGGAAATCGGGTTGGGGCGGAGTCACCTAGTGCAG — lower, 8330 fluorescence intensity (a.u.)
- GGCGGGGAATATTGTCCAATCCAGCGCGCCTGTAGGCGGACGGAGTCACCTAGTGCAG — lower, 9080 fluorescence intensity (a.u.)
- AGGTGGTCGGGGATGGCAACGATAGGTCAGGGACGACGGACGGAGTCACCTAGTGCAG — lower, 9240 fluorescence intensity (a.u.)
- TGATGTTCTTGCCAAGACCCCGACATTTTCTCTTGATTCTCGGAGTCACCTAGTGCAG — lower, 8390 fluorescence intensity (a.u.)
- CTCCGTCGCCACTCACACCCATGGCCTTGACCGCTACTAGCGGAGTCACCTAGTGCAG — lower, 9550 fluorescence intensity (a.u.)
- TGTGTATCCATTTCTGGTTTTGTGGTTAAGGGACTTTAAACGGAGTCACCTAGTGCAG — lower, 8520 fluorescence intensity (a.u.)
- TCTTATGCTTACCCTCTTTGTTGTATCAGTTCATACCATACGGAGTCACCTAGTGCAG — lower, 8080 fluorescence intensity (a.u.)
- GGCCCACCAACACTCTGACCCCACCAAATCAGTGACTGAACGGAGTCACCTAGTGCAG — lower, 8210 fluorescence intensity (a.u.)
- GGTGGGATGGGAGAGGAAGGAAGGGTCTCGCGGCGCGTCGCGGAGTCACCTAGTGCAG — lower, 9280 fluorescence intensity (a.u.)
- CCGCCGCTCCAGCCCACCACCGCCGCCACTTCAGCTAGCTCGGAGTCACCTAGTGCAG — lower, 9950 fluorescence intensity (a.u.)
- CAAGGACCAAAGTGCAAAACCCCACCTCGAATTCGATTTCCGGAGTCACCTAGTGCAG — lower, 8250 fluorescence intensity (a.u.)
- GTTTACTCTCTGCGACTGCACCATCTCCATGACAGCTTAGCGGAGTCACCTAGTGCAG — lower, 10900 fluorescence intensity (a.u.)
- CGCCATCATCGTCGTCGTCGTTGCCGTCGATAATCCTGACCGGAGTCACCTAGTGCAG — lower, 8420 fluorescence intensity (a.u.)
- CTCTTGGCGATTTGCGGAAGTTGTTGTTGTCCCCTTGCTCCGGAGTCACCTAGTGCAG — lower, 8060 fluorescence intensity (a.u.)
- CCCATCTCGGGGTTGGAGGTGAGCTTGGAGCTCCCTGTTCCGGAGTCACCTAGTGCAG — lower, 8800 fluorescence intensity (a.u.)
- AGGAATTATATCTCTCTCTTGATTTATTAACACCTTTCTCCGGAGTCACCTAGTGCAG — lower, 8190 fluorescence intensity (a.u.)
- TCCCATTATTACATCGTCGTTGTGTTCAACTATTGCACTACGGAGTCACCTAGTGCAG — lower, 11200 fluorescence intensity (a.u.)
- TTTCAGAATACACCATCGAAGCACGAATTTTCTTCGTTCCCGGAGTCACCTAGTGCAG — lower, 8690 fluorescence intensity (a.u.)
- AAATTGTGCATGCCACCAAGTCTCTAGTATTATCCATCTACGGAGTCACCTAGTGCAG — lower, 8460 fluorescence intensity (a.u.)
- CTGCGGGGAGGTGTAGGAGGAGGAGGGCGGAGGAGGTGGTCGGAGTCACCTAGTGCAG — lower, 8780 fluorescence intensity (a.u.)
- CACATCCTGAGGGCAGCAATTGGTTTTTTTTCCCATATTTCGGAGTCACCTAGTGCAG — lower, 11800 fluorescence intensity (a.u.)
- ACCCTAATCCATCCATGGCGGTTAATACTTCGCGCGCATACGGAGTCACCTAGTGCAG — lower, 9390 fluorescence intensity (a.u.)
- TACATTTGACCTATACGTACGTGCACTACTATACCAGTCACGGAGTCACCTAGTGCAG — lower, 9800 fluorescence intensity (a.u.)
- TGCTAGTCTTCTTTCTTGTTTTGTTGTGTTTCTCATTTGTCGGAGTCACCTAGTGCAG — lower, 12800 fluorescence intensity (a.u.)
